In test [1] the target is HA-Smurf1 (UniProt Q9HCE7). Nature of the test: co-IP; HEK293T co-transfected with tagged NADK (full length or truncation) and Smurf1; lysed 36 h after transfection in IP lysis buffer (50 mM Tris-HCl pH 8.0, 150 mM NaCl, 1% NP-40); Flag-beads or HA-beads 3 h at 4 °C; washed in TBS; western blot.
In test [2] the target is endogenous Smurf1 (human (endogenous in A549)) (UniProt Q9HCE7). Description: co-IP; endogenous proteins in A549 lysate (IP lysis buffer); 2 ug NADK antibody or 2 ug Smurf1 antibody overnight at 4 °C, Protein A/G beads 2 h; washed in TBS; western blot. (In general: A western blot detects proteins with antibodies after separation by electrophoresis.)

Chains of the proteins cited; added tags and fusions are not shown.
UniProt Q9HCE7: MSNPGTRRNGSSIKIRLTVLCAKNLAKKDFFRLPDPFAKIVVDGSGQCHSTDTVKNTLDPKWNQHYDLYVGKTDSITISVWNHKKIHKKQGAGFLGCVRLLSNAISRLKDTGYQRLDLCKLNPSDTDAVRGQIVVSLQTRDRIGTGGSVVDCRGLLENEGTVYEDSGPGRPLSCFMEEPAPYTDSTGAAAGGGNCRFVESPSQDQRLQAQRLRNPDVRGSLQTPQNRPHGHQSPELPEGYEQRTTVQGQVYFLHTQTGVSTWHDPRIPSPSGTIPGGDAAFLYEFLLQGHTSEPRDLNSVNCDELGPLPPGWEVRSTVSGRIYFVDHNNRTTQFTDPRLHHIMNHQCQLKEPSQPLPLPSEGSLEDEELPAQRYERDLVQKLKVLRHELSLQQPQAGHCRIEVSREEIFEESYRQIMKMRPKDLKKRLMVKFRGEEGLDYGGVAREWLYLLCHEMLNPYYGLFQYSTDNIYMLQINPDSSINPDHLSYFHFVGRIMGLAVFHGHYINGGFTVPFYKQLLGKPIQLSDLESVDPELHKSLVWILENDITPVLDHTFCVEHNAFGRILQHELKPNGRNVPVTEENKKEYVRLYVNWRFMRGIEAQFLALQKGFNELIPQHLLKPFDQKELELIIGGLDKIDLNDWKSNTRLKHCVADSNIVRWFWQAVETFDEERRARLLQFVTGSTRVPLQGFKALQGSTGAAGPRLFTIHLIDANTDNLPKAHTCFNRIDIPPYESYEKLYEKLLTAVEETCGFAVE

These are yes or no findings as the source states them, for the method shown. In cells and extracts the contact can be indirect. Some results given as binding are weak or reduced against the parent protein; the word gives no strength. For part of these data: Where a sequence is shown, tags or fusion partners need not be part of it.

The record followed here is paper PMC10321276.

B1: NADK TD1 (1-108, kinase-inhibiting domain) (domain or fragment, UniProt O95544 1-108)
chain: MEMEQEKMTMNKELSPDAAAYCCSACHGDETWSYNHPIRGRAKSRSLSASPALGSTKEFRRTRSLHGPCPVTTFGPKACVLQNPQTIMHIQDPASQRLTWNKSPKSVL
In the case of B1, the binding result in test [1] is “binds”.

B2: Flag-NADK (nicotinamide adenine dinucleotide kinase) (enzyme, UniProt O95544 1-446)
chain: MEMEQEKMTMNKELSPDAAAYCCSACHGDETWSYNHPIRGRAKSRSLSASPALGSTKEFRRTRSLHGPCPVTTFGPKACVLQNPQTIMHIQDPASQRLTWNKSPKSVLVIKKMRDASLLQPFKELCTHLMEENMIVYVEKKVLEDPAIASDESFGAVKKKFCTFREDYDDISNQIDFIICLGGDGTLLYASSLFQGSVPPVMAFHLGSLGFLTPFSFENFQSQVTQVIEGNAAVVLRSRLKVRVVKELRGKKTAVHNGLGENGSQAAGLDMDVGKQAMQYQVLNEVVIDRGPSSYLSNVDVYLDGHLITTVQGDGVIVSTPTGSTAYAAAAGASMIHPNVPAIMITPICPHSLSFRPIVVPAGVELKIMLSPEARNTAWVSFDGRKRQEIRHGDSISITTSCYPLPSICVRDPVSDWFESLAQCLHWNVRKKQAHFEEEEEEEEEG
Turning to B2, the binding entry in test [1] was “binds”.

B3: endogenous NADK (enzyme, UniProt O95544 1-446)
chain: MEMEQEKMTMNKELSPDAAAYCCSACHGDETWSYNHPIRGRAKSRSLSASPALGSTKEFRRTRSLHGPCPVTTFGPKACVLQNPQTIMHIQDPASQRLTWNKSPKSVLVIKKMRDASLLQPFKELCTHLMEENMIVYVEKKVLEDPAIASDESFGAVKKKFCTFREDYDDISNQIDFIICLGGDGTLLYASSLFQGSVPPVMAFHLGSLGFLTPFSFENFQSQVTQVIEGNAAVVLRSRLKVRVVKELRGKKTAVHNGLGENGSQAAGLDMDVGKQAMQYQVLNEVVIDRGPSSYLSNVDVYLDGHLITTVQGDGVIVSTPTGSTAYAAAAGASMIHPNVPAIMITPICPHSLSFRPIVVPAGVELKIMLSPEARNTAWVSFDGRKRQEIRHGDSISITTSCYPLPSICVRDPVSDWFESLAQCLHWNVRKKQAHFEEEEEEEEEG
Consider B3, for which the binding entry in test [2] is “binds”.
